Experimental data reported in PubChem BioAssay (EPA / NIEHS).
This list was built around the results that the source calls inconclusive (neither active nor inactive); the mix of calls is not that of the screen. A potency beside an inconclusive call is a rough fit, not a confirmed value. Calls of active or inactive are those of the source. How the source made its calls: active means hit-call score of the fitted dose curve at least 0.9, where 1 is the maximum; inconclusive means response in the unintended direction; inactive means score below 0.9.

Sequences of proteins named here, by UniProt entry; tags and fusion partners are left off. A change or cut given only in a name is not applied to a line headed by its entry.
UniProt P10275: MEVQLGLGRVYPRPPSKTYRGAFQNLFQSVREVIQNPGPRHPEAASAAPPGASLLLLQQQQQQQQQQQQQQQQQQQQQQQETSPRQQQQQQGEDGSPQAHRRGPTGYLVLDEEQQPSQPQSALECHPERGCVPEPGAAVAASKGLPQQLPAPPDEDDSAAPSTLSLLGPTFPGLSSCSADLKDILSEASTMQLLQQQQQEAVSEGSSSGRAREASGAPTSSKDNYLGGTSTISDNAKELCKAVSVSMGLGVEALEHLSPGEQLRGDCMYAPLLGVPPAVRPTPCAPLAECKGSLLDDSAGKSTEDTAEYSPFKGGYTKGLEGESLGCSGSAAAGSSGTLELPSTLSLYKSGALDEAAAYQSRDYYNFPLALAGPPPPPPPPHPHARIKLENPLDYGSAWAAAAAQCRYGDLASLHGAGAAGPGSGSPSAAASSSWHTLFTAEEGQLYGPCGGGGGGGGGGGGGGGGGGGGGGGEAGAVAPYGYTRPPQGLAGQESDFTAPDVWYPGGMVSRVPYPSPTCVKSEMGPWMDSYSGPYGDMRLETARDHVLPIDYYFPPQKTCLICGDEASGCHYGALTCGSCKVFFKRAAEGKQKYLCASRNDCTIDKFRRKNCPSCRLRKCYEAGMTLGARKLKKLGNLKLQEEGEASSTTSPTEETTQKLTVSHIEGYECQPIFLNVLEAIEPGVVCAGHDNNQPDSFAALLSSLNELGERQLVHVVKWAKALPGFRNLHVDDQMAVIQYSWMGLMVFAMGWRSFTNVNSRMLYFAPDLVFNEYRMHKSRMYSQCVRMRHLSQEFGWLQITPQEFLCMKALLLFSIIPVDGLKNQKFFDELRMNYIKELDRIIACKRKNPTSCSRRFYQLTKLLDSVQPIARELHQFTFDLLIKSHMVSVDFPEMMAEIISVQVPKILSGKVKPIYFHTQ

What was measured:
[1] = ACEA_ER_AUC_viability: ACEA Biosciences xCELLigence Real-Time Cell Analysis on Estrogen Receptor Agonism for Viability (AID 2283782);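 further: continuous compound exposure with impedance area under curve over 80 h; hit means loss of impedance signal meaning reduced cell growth or viability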
Method in brief: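 T-47D; phenol red-free RPMI1640 + 10% CS-FBS; 8 conc., 1:4 serial, max 100 uM final, ≤0.5% DMSO; n = 2; continuous exposure; impedance monitored to 80 h post-dose; AUC vs DMSO.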

AR (gene 367) = AR (gene 367) (UniProt P10275); test: ACEA_AR_agonist_80hr: ACEA Biosciences xCELLigence Real-Time Cell Analysis on Androgen Receptor Agonism for Proliferation (AID 2283783);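 further: hits increase impedance growth signal above DMSO baseline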
Method in brief: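 Androgen-driven proliferation in 22Rv1 cells is tracked as electrical impedance, taken 80 h after continuous exposure to compound (eight concentrations, 1:4 steps, maximum 100 uM final). Activity is fitted in the positive direction with DMSO as baseline.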

Cn1c(-c2ccccc2)cc(-c2ccccc2)[n+]1C
AC50 [1]: inconclusive: 10400 nM

C[C@]12CC[C@H](O)CC1=CC[C@@H]1[C@@H]2CC[C@]2(C)C(=O)CC[C@@H]12
AC50 [1]: inconclusive: 945 nM

CO/N=C(/C1=NOCCO1)c1ccccc1Oc1ncnc(Oc2ccccc2Cl)c1F
AC50 [1]: active: 91800 nM

O=[N+]([O-])/N=C1\NCCN1Cc1ccc(Cl)nc1
AC50 [1]: inconclusive: 23.2 nM
AC50 (AR (gene 367)): inconclusive: 23.6 nM

CCCSP(=O)(OCC)SCCC
AC50 [1]: inconclusive: 28.5 nM
AC50 (AR (gene 367)): inconclusive: 15300 nM

CCC1(c2ccc(N)cc2)CCC(=O)NC1=O (stereo unspecified)
outcome [1]: inactive
AC50 (AR (gene 367)): inconclusive: 341 nM

CC1(C)CCC(=Cc2ccc(Cl)cc2)C1(O)Cn1cncn1 (stereo unspecified)
AC50 [1]: inconclusive: 21.8 nM
outcome (AR (gene 367)): inactive
